According to the supplement of paper PMC10849652:
The list shows a part of the results.

Protein sequences, listed by entry. Tags and fused reporters are not part of them. Lines headed by an entry give the natural chain unless they say otherwise; changes in a name come on top.
UniProt Q9P0J0, whole entry, looked up: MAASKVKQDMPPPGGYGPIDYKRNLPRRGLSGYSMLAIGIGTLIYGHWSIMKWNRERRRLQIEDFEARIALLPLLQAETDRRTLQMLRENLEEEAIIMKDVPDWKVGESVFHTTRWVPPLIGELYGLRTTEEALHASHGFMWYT
UniProt O94916: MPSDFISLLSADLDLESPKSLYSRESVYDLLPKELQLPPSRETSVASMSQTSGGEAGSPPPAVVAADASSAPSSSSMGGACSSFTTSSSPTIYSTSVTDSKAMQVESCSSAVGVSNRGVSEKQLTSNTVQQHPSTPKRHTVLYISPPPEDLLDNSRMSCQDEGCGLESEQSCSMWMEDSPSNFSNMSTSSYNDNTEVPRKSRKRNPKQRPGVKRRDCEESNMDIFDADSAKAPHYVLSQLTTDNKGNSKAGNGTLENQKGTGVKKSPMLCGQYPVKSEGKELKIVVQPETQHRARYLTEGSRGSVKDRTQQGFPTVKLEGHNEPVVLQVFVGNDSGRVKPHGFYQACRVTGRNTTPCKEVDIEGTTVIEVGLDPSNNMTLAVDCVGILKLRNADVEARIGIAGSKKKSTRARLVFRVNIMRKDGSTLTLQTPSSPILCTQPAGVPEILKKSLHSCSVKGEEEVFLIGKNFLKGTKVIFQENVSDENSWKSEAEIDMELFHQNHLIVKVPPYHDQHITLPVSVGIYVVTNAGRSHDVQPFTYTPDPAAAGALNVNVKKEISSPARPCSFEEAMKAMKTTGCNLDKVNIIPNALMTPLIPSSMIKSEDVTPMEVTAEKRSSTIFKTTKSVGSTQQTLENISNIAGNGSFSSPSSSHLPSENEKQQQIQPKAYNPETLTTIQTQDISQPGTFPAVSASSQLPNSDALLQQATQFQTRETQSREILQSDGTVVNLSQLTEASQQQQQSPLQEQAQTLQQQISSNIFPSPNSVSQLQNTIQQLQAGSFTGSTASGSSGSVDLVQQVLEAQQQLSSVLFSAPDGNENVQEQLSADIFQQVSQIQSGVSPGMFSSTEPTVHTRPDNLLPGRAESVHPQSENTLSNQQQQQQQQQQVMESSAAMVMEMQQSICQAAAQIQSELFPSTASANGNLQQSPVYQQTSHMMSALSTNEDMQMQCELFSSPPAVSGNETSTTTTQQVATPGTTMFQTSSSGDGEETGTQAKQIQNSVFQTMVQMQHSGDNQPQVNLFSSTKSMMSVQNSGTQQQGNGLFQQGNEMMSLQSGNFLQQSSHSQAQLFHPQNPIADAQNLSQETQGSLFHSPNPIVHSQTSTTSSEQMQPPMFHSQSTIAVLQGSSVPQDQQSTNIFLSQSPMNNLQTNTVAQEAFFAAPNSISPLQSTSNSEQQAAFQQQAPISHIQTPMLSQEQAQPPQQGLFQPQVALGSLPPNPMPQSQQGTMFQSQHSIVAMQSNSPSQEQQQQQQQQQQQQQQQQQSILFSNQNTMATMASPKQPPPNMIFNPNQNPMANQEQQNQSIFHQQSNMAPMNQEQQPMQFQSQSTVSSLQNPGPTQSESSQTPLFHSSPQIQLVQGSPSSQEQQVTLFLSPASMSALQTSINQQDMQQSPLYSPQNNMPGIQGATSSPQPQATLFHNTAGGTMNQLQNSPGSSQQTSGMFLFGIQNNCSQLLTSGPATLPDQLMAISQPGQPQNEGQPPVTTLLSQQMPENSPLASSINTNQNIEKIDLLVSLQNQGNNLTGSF
UniProt Q15843, whole entry, looked up: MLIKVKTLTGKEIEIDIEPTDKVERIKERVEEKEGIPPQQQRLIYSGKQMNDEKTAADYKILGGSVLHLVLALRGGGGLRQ
UniProt Q9UQ49: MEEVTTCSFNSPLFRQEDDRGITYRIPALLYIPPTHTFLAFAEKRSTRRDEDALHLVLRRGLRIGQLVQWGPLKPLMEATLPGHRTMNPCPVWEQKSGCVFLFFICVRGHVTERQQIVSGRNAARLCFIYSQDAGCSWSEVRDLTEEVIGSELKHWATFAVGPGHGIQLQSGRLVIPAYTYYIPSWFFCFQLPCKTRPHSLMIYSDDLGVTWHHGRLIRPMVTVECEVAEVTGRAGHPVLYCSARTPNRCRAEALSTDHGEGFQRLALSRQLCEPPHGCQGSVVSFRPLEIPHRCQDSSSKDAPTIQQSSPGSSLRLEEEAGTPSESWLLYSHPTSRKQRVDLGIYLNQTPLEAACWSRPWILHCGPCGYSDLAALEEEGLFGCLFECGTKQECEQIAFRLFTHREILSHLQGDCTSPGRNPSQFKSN
UniProt Q16795, whole entry, looked up: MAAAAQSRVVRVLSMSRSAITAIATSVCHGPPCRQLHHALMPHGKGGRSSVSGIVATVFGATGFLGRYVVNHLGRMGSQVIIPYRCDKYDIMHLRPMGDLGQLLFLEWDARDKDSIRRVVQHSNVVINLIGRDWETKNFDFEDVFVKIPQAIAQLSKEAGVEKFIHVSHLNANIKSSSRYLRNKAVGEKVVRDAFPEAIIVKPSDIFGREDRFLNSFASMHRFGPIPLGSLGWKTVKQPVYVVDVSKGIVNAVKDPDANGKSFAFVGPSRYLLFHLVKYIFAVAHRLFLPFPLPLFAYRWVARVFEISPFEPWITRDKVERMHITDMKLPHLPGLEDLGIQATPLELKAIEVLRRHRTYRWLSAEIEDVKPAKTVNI
UniProt O43181, whole entry, looked up: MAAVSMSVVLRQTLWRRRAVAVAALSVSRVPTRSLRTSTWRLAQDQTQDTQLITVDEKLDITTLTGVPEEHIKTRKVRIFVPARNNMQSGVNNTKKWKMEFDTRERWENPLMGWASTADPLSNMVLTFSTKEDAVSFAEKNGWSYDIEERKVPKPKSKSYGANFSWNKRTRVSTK
UniProt O43674, whole entry, looked up: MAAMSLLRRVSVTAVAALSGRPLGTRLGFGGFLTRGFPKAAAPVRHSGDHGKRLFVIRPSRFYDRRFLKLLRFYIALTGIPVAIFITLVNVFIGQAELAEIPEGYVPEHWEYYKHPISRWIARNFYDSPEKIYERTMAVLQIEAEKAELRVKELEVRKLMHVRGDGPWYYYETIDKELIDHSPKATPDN
UniProt P23511, whole entry, looked up: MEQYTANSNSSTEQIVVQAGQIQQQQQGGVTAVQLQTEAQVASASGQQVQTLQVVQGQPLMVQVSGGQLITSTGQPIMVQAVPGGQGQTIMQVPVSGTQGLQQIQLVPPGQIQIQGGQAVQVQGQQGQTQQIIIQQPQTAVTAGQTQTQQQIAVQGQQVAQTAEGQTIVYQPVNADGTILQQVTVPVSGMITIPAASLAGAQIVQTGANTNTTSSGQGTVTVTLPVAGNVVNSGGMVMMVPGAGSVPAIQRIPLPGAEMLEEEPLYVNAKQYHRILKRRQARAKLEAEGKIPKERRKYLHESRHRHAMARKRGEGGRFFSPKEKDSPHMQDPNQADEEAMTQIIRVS
UniProt Q8NBF2: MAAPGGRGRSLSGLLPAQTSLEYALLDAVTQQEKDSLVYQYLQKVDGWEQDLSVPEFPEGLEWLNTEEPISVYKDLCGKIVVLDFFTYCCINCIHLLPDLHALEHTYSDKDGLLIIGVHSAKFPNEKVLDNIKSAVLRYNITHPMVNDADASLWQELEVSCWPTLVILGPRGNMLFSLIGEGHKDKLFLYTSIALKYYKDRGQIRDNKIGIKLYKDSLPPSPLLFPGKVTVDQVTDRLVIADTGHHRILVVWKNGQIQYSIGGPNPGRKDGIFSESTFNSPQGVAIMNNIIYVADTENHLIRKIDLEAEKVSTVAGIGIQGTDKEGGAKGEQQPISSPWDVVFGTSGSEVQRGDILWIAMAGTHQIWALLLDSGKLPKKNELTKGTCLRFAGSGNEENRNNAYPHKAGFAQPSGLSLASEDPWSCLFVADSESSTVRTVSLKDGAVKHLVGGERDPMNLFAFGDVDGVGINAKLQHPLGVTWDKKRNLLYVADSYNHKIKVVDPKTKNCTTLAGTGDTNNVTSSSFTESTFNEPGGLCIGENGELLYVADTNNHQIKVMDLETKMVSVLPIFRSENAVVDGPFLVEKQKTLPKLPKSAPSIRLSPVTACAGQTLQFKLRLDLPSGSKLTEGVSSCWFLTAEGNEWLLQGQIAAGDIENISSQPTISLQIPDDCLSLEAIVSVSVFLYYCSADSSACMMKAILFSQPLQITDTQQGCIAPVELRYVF
UniProt Q9Y6M9, whole entry, looked up: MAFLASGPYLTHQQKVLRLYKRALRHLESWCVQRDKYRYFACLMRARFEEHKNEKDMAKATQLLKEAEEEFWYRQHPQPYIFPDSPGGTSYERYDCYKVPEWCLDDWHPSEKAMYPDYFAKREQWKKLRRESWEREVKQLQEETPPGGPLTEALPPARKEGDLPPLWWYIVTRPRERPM
UniProt O75380, whole entry, looked up: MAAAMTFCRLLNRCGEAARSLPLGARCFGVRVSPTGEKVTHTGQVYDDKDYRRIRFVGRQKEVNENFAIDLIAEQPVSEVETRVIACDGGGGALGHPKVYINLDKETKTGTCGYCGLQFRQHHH
UniProt Q86X76: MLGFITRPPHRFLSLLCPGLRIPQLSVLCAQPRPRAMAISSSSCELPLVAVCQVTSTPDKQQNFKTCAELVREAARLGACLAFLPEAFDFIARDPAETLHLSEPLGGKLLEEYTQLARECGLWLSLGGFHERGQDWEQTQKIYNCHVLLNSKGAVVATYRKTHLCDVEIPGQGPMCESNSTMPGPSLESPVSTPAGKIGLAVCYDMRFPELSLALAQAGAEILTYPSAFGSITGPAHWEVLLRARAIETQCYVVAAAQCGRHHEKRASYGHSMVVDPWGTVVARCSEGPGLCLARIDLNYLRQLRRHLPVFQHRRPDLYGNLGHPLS
UniProt Q96PY6: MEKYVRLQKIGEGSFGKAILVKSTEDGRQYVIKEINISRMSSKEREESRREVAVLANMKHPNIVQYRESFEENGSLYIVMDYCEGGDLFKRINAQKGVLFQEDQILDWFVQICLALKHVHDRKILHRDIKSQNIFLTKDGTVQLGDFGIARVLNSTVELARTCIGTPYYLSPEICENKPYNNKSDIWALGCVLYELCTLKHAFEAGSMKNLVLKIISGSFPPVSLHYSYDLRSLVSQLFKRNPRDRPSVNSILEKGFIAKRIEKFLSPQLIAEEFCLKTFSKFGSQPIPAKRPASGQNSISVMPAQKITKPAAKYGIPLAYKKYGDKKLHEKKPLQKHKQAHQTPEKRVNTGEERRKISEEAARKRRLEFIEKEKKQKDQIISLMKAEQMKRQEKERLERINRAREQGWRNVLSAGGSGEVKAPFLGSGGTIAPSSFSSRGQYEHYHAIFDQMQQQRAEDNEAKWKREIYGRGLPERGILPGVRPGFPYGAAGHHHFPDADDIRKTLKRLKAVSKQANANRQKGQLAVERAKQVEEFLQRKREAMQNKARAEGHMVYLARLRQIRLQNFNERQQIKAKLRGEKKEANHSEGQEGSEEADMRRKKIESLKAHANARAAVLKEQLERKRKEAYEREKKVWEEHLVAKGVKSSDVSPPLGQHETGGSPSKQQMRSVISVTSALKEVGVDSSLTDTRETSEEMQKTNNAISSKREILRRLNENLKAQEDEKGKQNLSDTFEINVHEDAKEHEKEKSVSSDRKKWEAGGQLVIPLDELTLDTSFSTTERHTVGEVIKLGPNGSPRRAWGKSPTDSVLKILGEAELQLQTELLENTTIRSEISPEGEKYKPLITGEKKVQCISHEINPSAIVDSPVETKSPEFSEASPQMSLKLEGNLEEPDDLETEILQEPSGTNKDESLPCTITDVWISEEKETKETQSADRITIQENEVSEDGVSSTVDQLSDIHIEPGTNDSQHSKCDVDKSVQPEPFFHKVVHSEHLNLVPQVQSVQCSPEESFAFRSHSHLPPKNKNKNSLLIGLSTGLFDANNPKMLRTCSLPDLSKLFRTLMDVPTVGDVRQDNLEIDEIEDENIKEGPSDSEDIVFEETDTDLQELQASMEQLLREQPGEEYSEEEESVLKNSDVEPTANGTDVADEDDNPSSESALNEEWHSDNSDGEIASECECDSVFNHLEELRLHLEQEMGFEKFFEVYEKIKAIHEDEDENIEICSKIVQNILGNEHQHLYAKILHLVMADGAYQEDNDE
UniProt O95182, whole entry, looked up: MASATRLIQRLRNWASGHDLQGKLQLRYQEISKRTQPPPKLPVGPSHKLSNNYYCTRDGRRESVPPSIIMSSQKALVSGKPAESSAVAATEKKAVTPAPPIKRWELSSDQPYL
UniProt P51956: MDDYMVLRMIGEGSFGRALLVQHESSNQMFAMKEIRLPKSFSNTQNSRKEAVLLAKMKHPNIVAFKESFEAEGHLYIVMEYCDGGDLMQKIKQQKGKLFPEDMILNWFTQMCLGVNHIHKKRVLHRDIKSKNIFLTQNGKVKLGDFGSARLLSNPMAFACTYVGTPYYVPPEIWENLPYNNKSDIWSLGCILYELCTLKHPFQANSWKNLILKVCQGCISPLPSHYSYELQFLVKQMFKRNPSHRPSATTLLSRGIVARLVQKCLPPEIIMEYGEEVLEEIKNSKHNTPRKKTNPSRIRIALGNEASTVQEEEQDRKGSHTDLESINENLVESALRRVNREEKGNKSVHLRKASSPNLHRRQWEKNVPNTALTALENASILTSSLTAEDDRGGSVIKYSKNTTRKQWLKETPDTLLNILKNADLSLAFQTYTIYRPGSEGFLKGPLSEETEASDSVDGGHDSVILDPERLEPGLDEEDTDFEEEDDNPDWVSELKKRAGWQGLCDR

Each target was assayed with C1=CC=C(C=C1)[C@H](COC2=CC3=C(C=C2)NC(=O)N3)NC(=O)C4=CC=CN(C4=O)CC5=CC(=C(C=C5)F)F (assay: log2 fold change, soluble protein after heating vs DMSO (PISA); higher = thermal stabilisation; K562 lysate, 10 uM; active = over 0.2 and 3.5 SD of the protein, either way, in both replicates (recomputed)).
Summary of the method: (§1)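 K562 pellets were dounce-homogenised in PBS pH 7.4 containing 1 mM MgCl2, and the crude extract, at 1 mg/mL protein, was exposed to 10 μM compound for 30 min. Aliquots were heated for 3 min across 48°C-58°C, pooled, brought to 0.5% NP-40 at 4°C and spun at 21,000xg for 90 min, with the supernatant taken as soluble protein. TMTpro 16plex LC-MS/MS with equalised channel sums quantified that protein. Values are log-two fold changes in thermal stability relative to solvent controls, taken from duplicates.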
In the case of NDUFA13 (UniProt Q9P0J0), the log2 fold change is reported as inactive: -0.022. NFAT5 isoform 4 (UniProt O94916) was tested, and the log2 fold change was inactive: -0.208. With NFAT5 isoform 5 (UniProt O94916) the log2 fold change was inactive: 0.12. NEDD8 (UniProt Q15843) was tested, and the log2 fold change was inactive: 0.051. NEU3 isoform 2 (UniProt Q9UQ49) was tested, and the log2 fold change was inactive: -0.104. In the case of NDUFA9 (UniProt Q16795), the log2 fold change is reported as inactive: -0.033. With NDUFS4 (UniProt O43181) the log2 fold change was inactive: 0.04. For NDUFB5 (UniProt O43674), the log2 fold change was inactive: 0.028. For NFYA (UniProt P23511), the log2 fold change was inactive: 0.153. NHLRC2 (UniProt Q8NBF2) was tested, and the log2 fold change was inactive: 0.011. For NKTR (UniProt P30414), the log2 fold change was inactive: 0.06. With NDUFB9 (UniProt Q9Y6M9) the log2 fold change was inactive: 0.027. With NDUFS6 (UniProt O75380) the log2 fold change was inactive: 0.044. For NIT1 (UniProt Q86X76), the log2 fold change was inactive: -0.022. For NEK1 isoform 3 (UniProt Q96PY6), the log2 fold change was inactive: 0.016.

The targets below were run with CC1=C(SC2=C1C(=N[C@H](C3=NN=C(N32)C)CC(=O)N)C4=CC=C(C=C4)Cl)C in the same assay as above.
Summary of the method: as §1
With NDRG2 (UniProt G3V2A6) the log2 fold change was inactive: -0.064. With NDUFC2 (UniProt O95298) the log2 fold change was inactive: -0.078. In the case of NDUFA7 (UniProt O95182), the log2 fold change is reported as inactive: -0.014. For NDUFB6 (UniProt O95139), the log2 fold change was inactive: -0.061. For NDUFV1 (UniProt P49821), the log2 fold change was inactive: 0.011. For NDST1 (UniProt P52848), the log2 fold change was inactive: 0.111. NDUFB3 (UniProt O43676) was tested, and the log2 fold change was inactive: -0.013. With NDUFA8 (UniProt P51970) the log2 fold change was inactive: -0.002. For NFKBIA (UniProt P25963), the log2 fold change was inactive: 0.021. With NEBL (UniProt O76041) the log2 fold change was inactive: 0.011. With NELFCD (UniProt Q8IXH7) the log2 fold change was inactive: 0.023. With NEK3 (UniProt P51956) the log2 fold change was inactive: -0.053. For NFIC (UniProt P08651), the log2 fold change was inactive: 0.018. NECAP2 (UniProt Q9NVZ3) was tested, and the log2 fold change was inactive: -0.013. NLRC3 isoform 2 (UniProt Q7RTR2) was tested, and the log2 fold change was inactive: 0.078. With NDUFA10 (UniProt O95299) the log2 fold change was inactive: -0.007. With NFXL1 (UniProt Q6ZNB6) the log2 fold change was inactive: 0.095. For NDUFV3 (UniProt P56181), the log2 fold change was inactive: -0.023. NISCH (UniProt Q9Y2I1) was tested, and the log2 fold change was inactive: 0.024. With NEMP1 (UniProt O14524) the log2 fold change was inactive: 0.122. NLN (UniProt Q9BYT8) was tested, and the log2 fold change was inactive: 0.002. For NDEL1 isoform 2 (UniProt Q9GZM8), the log2 fold change was inactive: 0.03. With NEDD1 isoform 3 (UniProt Q8NHV4) the log2 fold change was inactive: -0.009. With NDUFA13 (UniProt Q9P0J0) the log2 fold change was inactive: 0.036. For NFAT5 isoform 4 (UniProt O94916), the log2 fold change was inactive: 0.11. For NFAT5 isoform 5 (UniProt O94916), the log2 fold change was inactive: -0.028. NEDD8 (UniProt Q15843) was tested, and the log2 fold change was inactive: -0.014. With NEU3 isoform 2 (UniProt Q9UQ49) the log2 fold change was inactive: 0.081. In the case of NDUFA9 (UniProt Q16795), the log2 fold change is reported as inactive: -0.037. NDUFS4 (UniProt O43181) was tested, and the log2 fold change was inactive: -0.044. For NDUFB5 (UniProt O43674), the log2 fold change was inactive: -0.021. NFYA (UniProt P23511) was tested, and the log2 fold change was inactive: -0.024. NHLRC2 (UniProt Q8NBF2) was tested, and the log2 fold change was inactive: 0.014. In the case of NKTR (UniProt P30414), the log2 fold change is reported as inactive: -0.022. For NDUFB9 (UniProt Q9Y6M9), the log2 fold change was inactive: -0.028. With NDUFS6 (UniProt O75380) the log2 fold change was inactive: -0.049. For NIT1 (UniProt Q86X76), the log2 fold change was inactive: 0.004. In the case of NEK1 isoform 3 (UniProt Q96PY6), the log2 fold change is reported as inactive: 0.044.

These targets were tested with CC1=C2C(=CC=C1)N=C(N(C2=O)C3=CC=CC=C3C)CN4C=NC5=C(N=CN=C54)N in the same assay as above.
Summary of the method: as §1
For NDUFC2 (UniProt O95298), the log2 fold change was inactive: 0.014. With NDUFA7 (UniProt O95182) the log2 fold change was inactive: -0.014. NDUFB6 (UniProt O95139) was tested, and the log2 fold change was inactive: 0.009. For NDUFV1 (UniProt P49821), the log2 fold change was inactive: -0.004. NDST1 (UniProt P52848) was tested, and the log2 fold change was inactive: -0.072. NDUFB3 (UniProt O43676) was tested, and the log2 fold change was inactive: -0.01. With NDUFA8 (UniProt P51970) the log2 fold change was inactive: -0.003. With NFKBIA (UniProt P25963) the log2 fold change was inactive: 0.084. With NEBL (UniProt O76041) the log2 fold change was inactive: 0.047. In the case of NELFCD (UniProt Q8IXH7), the log2 fold change is reported as inactive: 0.018. NEK3 (UniProt P51956) was tested, and the log2 fold change was inactive: -0.247. In the case of NFIC (UniProt P08651), the log2 fold change is reported as inactive: -0.056. In the case of NECAP2 (UniProt Q9NVZ3), the log2 fold change is reported as inactive: -0.012. In the case of NLRC3 isoform 2 (UniProt Q7RTR2), the log2 fold change is reported as inactive: -0.064. For NDUFA10 (UniProt O95299), the log2 fold change was inactive: 0.015. NFXL1 (UniProt Q6ZNB6) was tested, and the log2 fold change was inactive: -0.021. With NDUFV3 (UniProt P56181) the log2 fold change was inactive: -0.064. For NISCH (UniProt Q9Y2I1), the log2 fold change was inactive: 0.003. For NLN (UniProt Q9BYT8), the log2 fold change was inactive: 0.018. NDEL1 isoform 2 (UniProt Q9GZM8) was tested, and the log2 fold change was inactive: -0.027. NEDD1 isoform 3 (UniProt Q8NHV4) was tested, and the log2 fold change was inactive: 0.091. NDUFA13 (UniProt Q9P0J0) was tested, and the log2 fold change was inactive: 0.01. With NFAT5 isoform 5 (UniProt O94916) the log2 fold change was inactive: 0.009. In the case of NEDD8 (UniProt Q15843), the log2 fold change is reported as inactive: -0.047. In the case of NEU3 isoform 2 (UniProt Q9UQ49), the log2 fold change is reported as inactive: 0.061. NDUFA9 (UniProt Q16795) was tested, and the log2 fold change was inactive: 0.071. With NDUFS4 (UniProt O43181) the log2 fold change was inactive: 0.015. In the case of NDUFB5 (UniProt O43674), the log2 fold change is reported as inactive: 0.023. NFYA (UniProt P23511) was tested, and the log2 fold change was inactive: 0.09. NHLRC2 (UniProt Q8NBF2) was tested, and the log2 fold change was inactive: 0.008. NKTR (UniProt P30414) was tested, and the log2 fold change was inactive: 0.103. NDUFB9 (UniProt Q9Y6M9) was tested, and the log2 fold change was inactive: -0.065. NDUFS6 (UniProt O75380) was tested, and the log2 fold change was inactive: -0.017. For NIT1 (UniProt Q86X76), the log2 fold change was inactive: 0.012. With NEK1 isoform 3 (UniProt Q96PY6) the log2 fold change was inactive: -0.023.
